Source: PMC4823106
These are yes or no findings as the source states them, for the method shown. In cells and extracts the contact can be indirect. Some results given as binding are weak or reduced against the parent protein; the word gives no strength.

Protein sequences, listed by entry. Tags and fused reporters are not part of them. Residues count along the entry.
UniProt Q9UBP4, residues 22-350: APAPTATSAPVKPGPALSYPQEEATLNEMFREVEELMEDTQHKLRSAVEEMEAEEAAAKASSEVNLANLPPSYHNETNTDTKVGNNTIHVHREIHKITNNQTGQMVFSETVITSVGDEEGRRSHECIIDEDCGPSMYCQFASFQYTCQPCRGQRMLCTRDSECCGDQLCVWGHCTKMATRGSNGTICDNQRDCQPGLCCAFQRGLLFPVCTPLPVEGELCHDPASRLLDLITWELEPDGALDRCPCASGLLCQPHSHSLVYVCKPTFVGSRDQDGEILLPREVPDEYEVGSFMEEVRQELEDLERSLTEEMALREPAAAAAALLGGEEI
UniProt P63172: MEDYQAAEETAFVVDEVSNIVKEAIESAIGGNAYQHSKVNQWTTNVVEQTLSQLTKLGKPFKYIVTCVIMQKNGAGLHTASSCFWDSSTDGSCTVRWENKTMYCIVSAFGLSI
UniProt P10275: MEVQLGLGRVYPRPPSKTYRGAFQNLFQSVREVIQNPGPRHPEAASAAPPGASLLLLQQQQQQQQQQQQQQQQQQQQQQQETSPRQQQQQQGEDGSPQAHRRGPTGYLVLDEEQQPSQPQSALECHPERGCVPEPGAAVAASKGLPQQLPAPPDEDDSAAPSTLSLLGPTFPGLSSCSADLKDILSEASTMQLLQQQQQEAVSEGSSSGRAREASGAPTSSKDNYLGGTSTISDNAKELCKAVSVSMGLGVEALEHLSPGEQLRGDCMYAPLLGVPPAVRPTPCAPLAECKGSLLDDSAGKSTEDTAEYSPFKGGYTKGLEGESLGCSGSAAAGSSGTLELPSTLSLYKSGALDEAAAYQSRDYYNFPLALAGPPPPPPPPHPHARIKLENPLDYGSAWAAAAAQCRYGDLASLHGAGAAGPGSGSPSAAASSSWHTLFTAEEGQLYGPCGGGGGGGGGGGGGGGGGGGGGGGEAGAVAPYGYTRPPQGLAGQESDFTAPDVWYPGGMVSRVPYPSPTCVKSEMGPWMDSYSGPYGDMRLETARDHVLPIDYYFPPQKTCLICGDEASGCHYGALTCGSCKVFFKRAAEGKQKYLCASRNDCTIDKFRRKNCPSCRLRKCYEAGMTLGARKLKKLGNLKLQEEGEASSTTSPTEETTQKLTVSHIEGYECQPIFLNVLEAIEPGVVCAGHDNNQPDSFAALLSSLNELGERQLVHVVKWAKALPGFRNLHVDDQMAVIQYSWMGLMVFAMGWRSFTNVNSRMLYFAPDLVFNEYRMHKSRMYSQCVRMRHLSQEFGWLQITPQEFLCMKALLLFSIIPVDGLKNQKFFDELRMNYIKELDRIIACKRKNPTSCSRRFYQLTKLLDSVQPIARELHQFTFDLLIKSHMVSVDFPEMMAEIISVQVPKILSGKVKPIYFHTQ

Biological target: Halo-tagged REIC/DKK-3 (full-length human, pFN21A) (human) (UniProt Q9UBP4)
Assay: pull-down; lysates of PC3 cells expressing Halo-REIC/DKK-3, GFP-AR, FLAG-TCTEX-1 and HA-SGTA; pulled down by Halo-tagged REIC/DKK-3; Western blot with anti-Halo, -HA, -FLAG and -GFP

binding | Substance
binds | FLAG-tagged TCTEX-1 (from UniProt P63172 1-113)
binds | GFP-tagged AR (pEGFP-C1-AR, full-length androgen receptor) (from UniProt P10275 1-920)
